Measurements taken from patent US20180305438A1 (ACCELERON PHARMA, published 2018).
These are yes or no findings as the source states them, for the method shown. Some entries that bind do so weakly or less than the wild type.

By UniProt entry, the sequences of proteins in these tests, tags left out. Residues count along the entry.
UniProt P22004, residues 382-513: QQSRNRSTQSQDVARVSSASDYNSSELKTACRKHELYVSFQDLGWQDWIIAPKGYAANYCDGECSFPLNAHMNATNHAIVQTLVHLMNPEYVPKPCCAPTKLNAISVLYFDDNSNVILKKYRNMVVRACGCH

Target: hBMP6 (human) (UniProt P22004)
Assay: Biacore (SPR)

B1: mALK3(24-152)-mFc derived from HEK 293 cells (Fc fusion)
chain: GAQNLDSMLHGTGMKSDLDQKKPENGVTLAPEDTLPFLKCYCSGHCPDDAINNTCITNGHCFAIIEEDDQGETTLTSGCMKYEGSDFQCKDSPKAQLRRTIECCRTNLCNQYLQPTLPPVVIGPFFDGSIRTGGGEPRVPITQNPCPPLKECPPCAAPDLLGGPSVFIFPPKIKDVLMISLSPMVTCVVVDVSEDDPDVQISWFVNNVEVHTAQTQTHREDYNSTLRVVSALPIQHQDWMSGKEFKCKVNNRALPSPIEKTISKPRGPVRAPQVYVLPPPAEEMTKKEFSLTCMITGFLPAEIAVDWTSNGRTEQNYKNTATVLDSDGSYFMYSKLRVQKSTWERGSLFACSVVHEGLHNHLTTKTISRSLGK
notes: The Gly-Ala at 23-24 may also be absent, since the main species of the human construct starts at Gln; also called mALK3-mFc
With B1 the binding was “binds”.
